The values below come from PubChem BioAssay AID493014 (National Center for Advancing Translational Sciences (NCATS), 2011).

SMILES strings stand for the structures. The list shows a part of the results. The main result of the screen is listed elsewhere. These columns were measured beside it and carry no call. Most of these compounds were active or inconclusive in the main read-out, so they are no random draw. Potencies come from curve fits of mixed quality, noted in brackets.

This experiment is described as follows: qHTS Assay to Find Inhibitors of Chronic Active B-Cell Receptor Signaling. As to conditions: ABC-DLBCL IkBa-CBG/CBR reporter, luminescence ratio (green luciferase fused to IkBa over red control in TMD8 lymphoma cells), 4 h. The essentials:
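TMD8 human ABC-DLBCL cells with doxycycline-inducible IκBα–green luciferase fusion and unfused red luciferase, in 0.5% FBS medium; compounds up to 46 uM, 4 h at 37C. Green/red luminescence ratio, filter-overlap corrected, fitted to concentration-response curves.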

The mark [1] stands for this setting: measured here: CBR red luminescence, cell number.
[2] abbreviates: measured here: IkBa-CBG green luminescence.

On to `COc1cc(C)ccc1OCCCON1C(=O)CCC1=O`, for which the AC50 (commonly the midpoint of the concentration-response curve, whichever way the signal moves) under setting [1] is 1.84 µM [rising, full curve]. Still for that read-out and setting: in the case of `CCN(CC)c1cc(Cl)c2nonc2c1N` it was 14.1 µM [rising, single point]; in that of `COc1cc(C(=O)N2CCN(C3CCC(C)CC3)CC2)cc(OC)c1OC` (stereo unspecified), 35.5 µM [falling, partial curve, poor fit]; in that of `O=C(CCC1CCCCC1)Nc1ccccc1-c1ccccc1`, 35.5 µM [rising, single point]. Same read-out and setting: in the case of `Cc1cccc(NC(=S)N(CCCN2CCCC2)Cc2cccn2Cc2ccc(Cl)cc2)c1` it was 17.8 µM [falling, partial curve, poor fit]; in that of `COc1cc(/C=N/N2C(=O)CSC2=S)cc(Br)c1O`, 35.5 µM [rising, partial curve, poor fit]. On the same count and under the same terms, for `CCCCc1ccc(NC(=O)CSCc2cc(=O)[nH][nH]2)cc1` the value was 29.1 µM [rising, single point]; for `CCOc1ncccc1C(=O)N=C1SCCN1C(=O)c1cccnc1OCC`, 25.1 µM [falling, single point]. For `C(=NC12CN3CN(CN(C3)C1)C2)c1ccc2c(c1)OCO2`, the concentration at half-maximal activity (AC50) under setting [1] is 0.092 µM [falling, full curve, poor fit]. For `O=C(Nc1ccc(N2CCOCC2)c(C(=O)O)c1)c1ccc(Br)cc1`, the AC50 under setting [1] is 35.5 µM [falling, single point].

As to `CCOc1ncccc1C(=O)Nc1cccc(S(=O)(=O)N2CCOCC2)c1`, under setting [1], the AC50 is 10.3 µM [falling, partial curve, poor fit]. Still for that read-out and setting: for `C/C(=N\NC(=O)CSCc1ccccc1Cl)c1cc(O)ccc1O` the value was 22.4 µM [falling, single point]; for `COc1ccc(NC(=S)N(CCCN2CCCC2)Cc2cccn2Cc2ccc(Cl)cc2)cc1Cl`, 17.8 µM [falling, single point]; for `O=C(NC1CCCC1)c1ccc2c(c1)N(Cc1ccc(F)cc1)CCS2`, 15.8 µM [falling, partial curve, poor fit].

As for `CC12CCC(=O)C=C1CCC1C2C(=O)CC2(C)C1CCC2(O)C(=O)CO` (stereo unspecified), the AC50 under setting [1] is 35.5 µM [rising, single point]. With `COc1ccc(C(=O)NC(=S)NC2CCCCC2)cc1`, under setting [1], the AC50 was 2.82 µM [rising, partial curve, poor fit].

For the compound `COCCn1nnnc1C(c1ccc(OC)c(OC)c1)N1CCN(c2nc3ccccc3s2)CC1` (stereo unspecified), under setting [1], the AC50 is 2.06 µM [falling, partial curve, poor fit]. On to `N#CCCS(=O)(=O)c1nnnn1-c1ccccc1`, for which the AC50 by setting is: under setting [1], 10 µM [falling, partial curve]; under setting [2], 14.1 µM [rising, single point].

With `Cc1cc2oc(=O)cc(C)c2cc1NC(=O)CCl`, the AC50 under setting [1] is 12.6 µM [falling, partial curve, poor fit]. With `Cc1cc2cc(CNC(=O)C3CC3)ccc2n1C`, the AC50 under setting [1] was 7.08 µM [rising, full curve]. Same read-out and setting: for `COc1ccc(CCn2c(NN)nc3c2c(=O)[nH]c(=O)n3C)cc1` the value was 31.6 µM [rising, single point]. As to `Cc1ccc(NC(=O)C2CC(=O)N(C(C)c3ccccc3)C2)cc1` (stereo unspecified), the AC50 under setting [1] was 23.1 µM [rising, single point]. On the same count and under the same terms, for `C[C@@H]1CN([C@H](C)CO)C(=O)c2cc(NC(=O)Nc3ccc(F)cc3)ccc2O[C@H]1CN(C)C(=O)Nc1ccc(C(F)(F)F)cc1` the value was 11.6 µM [rising, partial curve].

`CCOC(=O)c1c(C)nc2sc(C(N)=O)c(N)c2c1-c1ccc(OC)cc1`: under setting [1], the AC50 was 29.1 µM [falling, single point]. `CN1CCN(CC(O)COC(c2ccc(Cl)cc2)c2ccc(Cl)cc2)CC1` (stereo unspecified): under setting [1], the AC50 is 15.8 µM [falling, single point]. As for `Cc1cccc(OCC(=O)O/N=C(\N)c2ccccn2)c1C`, the AC50 under setting [1] is 12.6 µM [falling, single point]. For `CCOc1ccc(S(=O)(=O)N(CC)CC(=O)N2CCCC2)cc1C`, the concentration at half-maximal activity (AC50) under setting [1] was 35.5 µM [rising, single point].

`O=C(Nc1nccs1)c1ccc(-c2ccccc2Cl)o1`: under setting [1], the AC50 is 20.6 µM [falling, single point]. On the same count and under the same terms, for `CCOC(=O)Cc1ccc2sc(-c3ccccc3)nc2c1` the value was 16.4 µM [falling, single point]; for `COc1ccc(Oc2ccc(C(F)(F)F)cc2NC(=O)c2ccc(F)cc2)cc1`, 5.62 µM [rising, full curve, poor fit]; for `Cc1ccc(/C=N/NC(=O)c2ccc3nc[nH]c3c2)s1`, 8.91 µM [falling, partial curve, poor fit]. Same read-out and setting: for `Cc1cc(=O)c2cc(NC(=O)c3ccccc3Cl)ccc2[nH]1` the value was 3.55 µM [falling, full curve]. The same measure, in the same setting: in the case of `O=C(COC(=O)CC(c1ccccc1)c1ccccc1)Nc1ccc(F)c(F)c1` it was 11.2 µM [falling, single point].

For `CC(=O)N1CC(C)Sc2ccc(S(=O)(=O)NCc3ccc(Cl)cc3)cc21` (stereo unspecified), the AC50 under setting [1] was 6.31 µM [falling, partial curve, poor fit].

`CCC(=O)NNc1ncnc2c1cnn2-c1cccc(C)c1`: under setting [1], the concentration at half-maximal activity (AC50) was 0.562 µM [falling, full curve, poor fit]. The same measure, in the same setting: in the case of `O=C(Nc1ccc(Br)cc1)c1ccc(N2C(=O)C3CC=CCC3C2=O)cc1` (stereo unspecified) it was 6.51 µM [falling, partial curve, poor fit].

On to `COc1ccc(COC(=O)C2=C(C)NC(=O)NC2c2cc(OC)ccc2OC)cc1` (stereo unspecified), for which the AC50 under setting [2] was 12.6 µM [falling, partial curve, poor fit]. For `FC(F)(F)c1cnc(Oc2ccccc2-c2nnco2)c(Cl)c1`, the AC50 under setting [1] was 11.6 µM [rising, single point].

In the case of `O=C(NNC(=O)c1ccccc1O)c1ccco1`, the AC50 under setting [1] is 7.94 µM [falling, partial curve]. On the same count and under the same terms, in the case of `O=C(Cn1cc[n+](CC(=O)c2ccc(Cl)cc2Cl)c1)c1ccc(Cl)cc1Cl` it was 35.5 µM [falling, single point]; in that of `O=C(CCC(=O)N(CC(=O)NC1CCCCC1)Cc1ccco1)Nc1nccs1`, 35.5 µM [falling, partial curve, poor fit]; in that of `Cc1ccc(S(=O)(=O)c2c(N)n(Cc3ccco3)c3nc4ccccc4nc23)cc1C`, 8.2 µM [falling, partial curve].

For `COc1ccccc1NC(=O)C(=O)Nc1ccccn1`, the AC50 under setting [1] was 0.398 µM [falling, full curve].

Consider `Cc1ccc(NC(=O)CN2c3cccc4cccc(c34)S2(=O)=O)cc1`, for which, under setting [1], the AC50 was 18.4 µM [falling, partial curve, poor fit]. As for `CC(C)c1ccc(NC(=O)[C@H](NC(=O)[C@@H]2Cc3ccccc3CN2)c2ccccc2)cc1`, the AC50 under setting [1] is 3.55 µM [rising, single point]. The same measure, in the same setting: in the case of `Cn1c(-c2ccccc2)c(C=O)c2ccccc21` it was 6.31 µM [falling, single point].

As to `O=C(CCc1nnc2ccc(NCc3ccco3)nn12)Nc1ccc(F)cc1`, under setting [1], the AC50 was 35.5 µM [falling, single point].

As to `COc1cc(NC(=O)c2cc(Cl)nnc2Cl)cc(OC)c1OC`, the AC50 under setting [1] was 17.8 µM [falling, single point].

Regarding `Brc1cc(Br)c2nc(-c3ccc(N4CCOCC4)cc3)ccc2c1`, the half-maximal activity concentration (AC50) under setting [1] is 14.6 µM [rising, partial curve, poor fit]. On the same count and under the same terms, in the case of `O=C(COc1ccccc1)N=C1SC2CS(=O)(=O)CC2N1c1cccc(F)c1` (stereo unspecified) it was 0.316 µM [rising, full curve, poor fit].

`c1ccc2c(N3CCCCC3)nnc(N3CCCCC3)c2c1`: the AC50 under setting [1] is 18.4 µM [rising, single point]. The same measure, in the same setting: in the case of `Cc1ccc2c(c1)c(C)c(C)n2CC(O)Cn1nnc2ccccc21` (stereo unspecified) it was 17.8 µM [falling, partial curve, poor fit]. For `CCOc1ncccc1C(=O)Nc1cccc(S(=O)(=O)NC2=NCCC2)c1`, under setting [1], the AC50 is 1.46 µM [falling, partial curve]. The same measure, in the same setting: for `Cc1nc(-c2ccc(C(=O)Nc3cccc(Br)c3)cc2)cs1` the value was 35.5 µM [falling, single point]; for `C=C1CCN([C@H](C(=O)NCc2ccc(Cl)c(Cl)c2)C(C)C)S(=O)(=O)c2ccccc21`, 6.31 µM [falling, full curve]; for `O=C1NC[C@@H](Cc2ccc(O)cc2)N(CC2CCCCC2)C1=O`, 22.4 µM [rising, single point]. Still for that read-out and setting: for `CCOC(=O)CSc1nnc(NC(=O)CN2CCN(C=O)CC2)s1` the value was 4.47 µM [falling, full curve, poor fit]; for `Cn1cccc1C(=O)NC(=O)COC(=O)c1ccc(S(C)(=O)=O)c([N+](=O)[O-])c1`, 16.4 µM [falling, partial curve].

Take `CC(=O)NC(Cc1ccccc1C)C(=O)NC1CCN(C(=O)NCc2ccccc2)CC1` (stereo unspecified): the AC50 under setting [1] was 31.6 µM [rising, single point]. For the compound `CCn1c(SCC(=O)Nc2ccc(C(C)=O)cc2)nc2ccccc21`, the concentration at half-maximal activity (AC50) under setting [1] was 20.6 µM [rising, single point]. On the same count and under the same terms, for `COc1ccc(NC(C)=O)cc1S(=O)(=O)N(C)Cc1c(C)nn(-c2ccccc2)c1C` the value was 29.1 µM [rising, single point]; for `COCCOC(=O)C1=C(C)N=c2s/c(=C\c3cccs3)c(=O)n2C1c1cccs1` (stereo unspecified), 0.517 µM [falling, partial curve, poor fit]; for `CC(=O)c1cccc(NC(=S)NCCc2ccc(Cl)cc2)c1`, 10 µM [falling, partial curve]. As to `Cc1ccc(O)c(C(=O)c2cc(C#N)c(=O)n(-c3nccs3)c2)c1`, the AC50 under setting [1] is 3.98 µM [falling, full curve, poor fit].

Regarding `Cc1ccc2c(c1)/C(=C/c1ccccc1)C(=O)N2`, the AC50 under setting [1] is 12.6 µM [falling, partial curve, poor fit].
